# Test results published in PMC11058670.
# The chains behind the UniProt entries cited, without tags or fusion partners.
# UniProt Q9NRC8: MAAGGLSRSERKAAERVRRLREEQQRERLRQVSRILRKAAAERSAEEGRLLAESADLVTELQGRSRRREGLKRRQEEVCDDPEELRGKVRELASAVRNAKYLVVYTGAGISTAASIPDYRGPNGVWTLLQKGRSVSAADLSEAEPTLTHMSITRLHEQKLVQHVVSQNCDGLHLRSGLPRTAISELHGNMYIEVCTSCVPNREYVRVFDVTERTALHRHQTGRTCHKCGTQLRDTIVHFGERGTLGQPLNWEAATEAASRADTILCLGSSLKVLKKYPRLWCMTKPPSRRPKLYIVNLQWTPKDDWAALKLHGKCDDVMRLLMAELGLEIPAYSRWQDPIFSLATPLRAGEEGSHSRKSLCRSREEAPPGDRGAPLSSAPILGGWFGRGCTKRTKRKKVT
# Results are given in words; binding and its absence hold for the method and conditions named. For some assays here: Binding seen in cells or lysates may run through a third protein. Some entries that bind do so weakly or less than the wild type. For some assays here: Tags and fused reporters may be left off the sequences shown.
# How the values were obtained:
# GST-HIC1 fusion protein = molecular target: T1, GST-HIC1 fusion protein (UniProt Q14526); assay: pull-down; His-Sirt7 and GST-HIC1 fusion proteins mixed in a GST or His buffer at 4°C for 12 h; anti-His or anti-GST magnetic beads for more than 4 h; Western blot; both purified
# T1 sequence: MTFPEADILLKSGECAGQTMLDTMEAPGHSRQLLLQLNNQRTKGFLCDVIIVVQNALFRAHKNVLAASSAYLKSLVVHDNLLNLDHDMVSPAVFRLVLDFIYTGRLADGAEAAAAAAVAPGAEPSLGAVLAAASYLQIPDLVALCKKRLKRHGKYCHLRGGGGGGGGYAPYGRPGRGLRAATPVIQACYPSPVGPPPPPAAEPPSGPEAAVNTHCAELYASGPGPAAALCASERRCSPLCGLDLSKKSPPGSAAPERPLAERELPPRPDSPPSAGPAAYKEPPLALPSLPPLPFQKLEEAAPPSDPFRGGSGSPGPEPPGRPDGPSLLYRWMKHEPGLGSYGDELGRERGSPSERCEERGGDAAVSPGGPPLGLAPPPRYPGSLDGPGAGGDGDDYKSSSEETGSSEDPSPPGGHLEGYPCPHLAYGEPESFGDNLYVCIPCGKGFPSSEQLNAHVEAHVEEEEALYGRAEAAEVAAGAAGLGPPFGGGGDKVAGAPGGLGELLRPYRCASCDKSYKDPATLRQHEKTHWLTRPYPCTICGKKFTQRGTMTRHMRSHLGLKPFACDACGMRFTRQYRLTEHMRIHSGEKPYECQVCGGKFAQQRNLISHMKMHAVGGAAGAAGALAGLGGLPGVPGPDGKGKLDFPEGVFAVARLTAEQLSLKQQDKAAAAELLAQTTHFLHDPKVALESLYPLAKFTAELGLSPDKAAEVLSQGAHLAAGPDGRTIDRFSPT
# [1] = molecular target: T2, hypermethylated in cancer 1 (HIC1) (human (endogenous in HGECs)) (UniProt Q14526); assay: co-IP; endogenous proteins in HGEC extracts; primary antibodies with protein A/G Dynabeads, 12 h at 4°C; IgG control; Western blot
# T2 sequence: T1 sequence
binding (GST-HIC1 fusion protein),binding [1],Substance
binds,–,His-Sirt7 fusion protein (from UniProt Q9NRC8 1-400)
–,binds,Sirtuin 7 (Sirt7) (from UniProt Q9NRC8 1-400)
